Assay results reported in patent publication US6656931B2, “Vasopressin antagonist and diuretic combination” (Wyeth Holdings Corporation, priority 1999, dated 2003).
Read-outs that look alike come from different tables or passages of the source.

Experiments:
[1] = tested on: renal function in anesthetized rats
Description: NaCl reabsorption in the thick ascending limb of the Loop of Henle (TALH) creates free water that is reabsorbed in the collecting duct in the presence of vasopressin. […] Either V (3 mg/kg), F (5 mg/kg), both V and F (V/F) or the vehicles were administered intraduodenally.

[2] = tested on: healthy men; assay: Human single dose crossover drug interaction study, pharmacodynamics (urine flow, electrolytes); format: in vivo; settings: after administration of single doses
Description: (§1) A randomized, 3-period crossover designed, single dose drug interaction study was conducted in healthy men to evaluate the potential pharmacodynamic and pharmacokinetic interaction between VPA-985 and furosemide in 12 healthy men. The study lasted approximately 30 days, and included a pre-enrollment evaluation of up to 2 weeks before dose administration, and three 2-day (2-night) confinement periods. The doses were separated by at least a 1 week interval. The clinical portion of the study was completed in approximately 2 months.
The study drugs were a single oral dose of VPA-985 75-mg suspension, furosemide 40-mg tablet, and a VPA-985 75-mg suspension with a furosemide 40-mg tablet. The VPA-985 suspension (25 mg and 50 mg powder reconstituted) was administered in 150 mL of Sprite® brand lemon-lime soda (a product of The Coca-Cola Company) followed by 100 mL of room-temperature water (250 mL of fluid total). […]
Pharmacokinetic and pharmacodynamic data for both VPA-985 and furosemide were analyzed by using model-independent methods. Areas under concentration-time curves(AUCT) (AUC) and AUC truncated at the last observed concentration (CT)AUCT) were determined by using the linear/log trapezoidal method. […] An interaction was judged to be significant if a 35% difference was detected between either single agent and the two drugs administered concomitantly.

[3] = Human single dose crossover drug interaction study, pharmacokinetics; format: in vivo
Description: as §1
The study drugs were a single oral dose of VPA-985 75-mg suspension, furosemide 40-mg tablet, and a VPA-985 75-mg suspension with a furosemide 40-mg tablet. The VPA-985 suspension (25 mg and 50 mg powder reconstituted) was administered in 150 mL of Sprite® brand lemon-lime soda (a product of The Coca-Cola Company) followed by 100 mL of room-temperature water (250 mL of fluid total). Furosemide (40 mg tablets) was administered with 250 mL of room temperature water. When the 2 medications were administered together, furosemide was administered with the 100 mL of room temperature water, thereby assuring that all doses were administered with a total of 250 mL of fluid.
Pharmacokinetic and pharmacodynamic data for both VPA-985 and furosemide were analyzed by using model-independent methods. Areas under concentration-time curves(AUCT) (AUC) and AUC truncated at the last observed concentration (CT)AUCT) were determined by using the linear/log trapezoidal method. Statistical comparisons were made using by an analysis of variance (ANOVA). Confidence limits (90%) for pharmacokinetic parameters were constructed on a log scale using the two one-sided tests procedure. An interaction was judged to be significant if a 35% difference was detected between either single agent and the two drugs administered concomitantly.

[4] = male, human, in vivo, single oral dose furosemide 40-mg tablet alone, healthy men

## NS(=O)(=O)c1cc(C(=O)O)c(NCc2ccco2)cc1Cl [furosemide]
[1]; after intraduodenal administration (V 3 mg/kg, F 5 mg/kg)
  Na+ excretion: 1.77±0.60 μEq/min
[1]; baseline, before compound administration
  Na+ excretion: 0.09±0.02 μEq/min
[2]
  tmax of peak effect in urine flow: approximately 1.5 h
[3]; after coadministration with VPA-985 75 mg
  AUC of furosemide, versus furosemide alone: no difference
[3]; furosemide 40 mg with VPA-985 75 mg versus furosemide alone
  reduction of furosemide Cmax with VPA-985 relative to furosemide alone: less than 10%
[3]; male, human, in vivo, oral, furosemide 40-mg tablet coadministered with VPA-985 75-mg suspension, healthy men
  Cmax: 1.21 ng/mL
[3]; [4]
  AUC: 2.62 ng·h/mL
  Cmax: 1.3 ng/mL
[3]; male, human, urine, single oral dose furosemide 40-mg tablet alone, healthy men, read-out: mean CLr of furosemide (converted)
  CL renal: 1.33 mL/min/kg
